Compound in this assay: Nc1ncnc2c1ncn2[C@@H]1O[C@H](COP(=O)(O)OP(=O)(O)OP(=O)(O)O)[C@@H](O)[C@H]1O [adenosine triphosphate]
Nature of the assay: NP40-soluble protein abundance relative to vehicle (solubility fold change) (ratio); higher = more soluble protein in presence of ATP. In a few lines: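 Across three independent experiments, values are fold changes against the detergent-processed vehicle for each replicate, based on vsn-normalised intensities. The samples were Jurkat crude lysate treated with eight concentrations (0.1 to 10 mM) for 10 min at room temperature and then 3 min at 37 °C. Lysate was solubilised with 0.8% NP40 and benzonase, ultracentrifuged, and the supernatant analysed by TMT-labelled LC-MS/MS.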

Sequences of proteins named here, by UniProt entry; tags and fusion partners are left off. A change or cut given only in a name is not applied to a line headed by its entry.
UniProt Q86UA1: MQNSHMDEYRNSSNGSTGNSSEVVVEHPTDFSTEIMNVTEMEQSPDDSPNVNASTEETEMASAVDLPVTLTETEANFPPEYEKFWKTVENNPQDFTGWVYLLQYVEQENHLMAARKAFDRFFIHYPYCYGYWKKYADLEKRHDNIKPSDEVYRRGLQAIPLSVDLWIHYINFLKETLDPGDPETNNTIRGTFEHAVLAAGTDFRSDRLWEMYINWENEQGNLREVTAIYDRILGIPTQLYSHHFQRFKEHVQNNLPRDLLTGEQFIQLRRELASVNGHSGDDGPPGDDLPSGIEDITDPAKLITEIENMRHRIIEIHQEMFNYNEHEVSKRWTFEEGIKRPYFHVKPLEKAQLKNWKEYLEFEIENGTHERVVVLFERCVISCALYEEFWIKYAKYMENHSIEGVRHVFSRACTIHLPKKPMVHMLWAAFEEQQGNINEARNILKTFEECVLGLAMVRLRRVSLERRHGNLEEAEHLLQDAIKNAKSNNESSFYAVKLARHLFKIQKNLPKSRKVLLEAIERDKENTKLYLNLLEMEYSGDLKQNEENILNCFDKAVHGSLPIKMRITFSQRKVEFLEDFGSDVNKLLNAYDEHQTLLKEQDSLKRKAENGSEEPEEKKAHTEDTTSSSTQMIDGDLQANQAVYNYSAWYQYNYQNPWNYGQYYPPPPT
UniProt Q7Z7K0: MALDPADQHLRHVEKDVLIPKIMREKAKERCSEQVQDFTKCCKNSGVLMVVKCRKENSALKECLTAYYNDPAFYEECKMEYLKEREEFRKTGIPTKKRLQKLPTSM
UniProt Q6UXN9, whole entry: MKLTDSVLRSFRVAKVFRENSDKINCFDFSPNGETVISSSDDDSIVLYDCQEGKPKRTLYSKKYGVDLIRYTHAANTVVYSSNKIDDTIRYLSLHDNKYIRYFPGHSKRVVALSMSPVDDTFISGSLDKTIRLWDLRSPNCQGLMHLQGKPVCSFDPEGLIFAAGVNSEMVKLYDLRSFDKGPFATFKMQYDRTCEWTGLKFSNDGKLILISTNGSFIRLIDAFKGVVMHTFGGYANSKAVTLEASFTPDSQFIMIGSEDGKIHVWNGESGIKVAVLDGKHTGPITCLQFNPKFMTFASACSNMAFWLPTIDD
UniProt Q6UN15: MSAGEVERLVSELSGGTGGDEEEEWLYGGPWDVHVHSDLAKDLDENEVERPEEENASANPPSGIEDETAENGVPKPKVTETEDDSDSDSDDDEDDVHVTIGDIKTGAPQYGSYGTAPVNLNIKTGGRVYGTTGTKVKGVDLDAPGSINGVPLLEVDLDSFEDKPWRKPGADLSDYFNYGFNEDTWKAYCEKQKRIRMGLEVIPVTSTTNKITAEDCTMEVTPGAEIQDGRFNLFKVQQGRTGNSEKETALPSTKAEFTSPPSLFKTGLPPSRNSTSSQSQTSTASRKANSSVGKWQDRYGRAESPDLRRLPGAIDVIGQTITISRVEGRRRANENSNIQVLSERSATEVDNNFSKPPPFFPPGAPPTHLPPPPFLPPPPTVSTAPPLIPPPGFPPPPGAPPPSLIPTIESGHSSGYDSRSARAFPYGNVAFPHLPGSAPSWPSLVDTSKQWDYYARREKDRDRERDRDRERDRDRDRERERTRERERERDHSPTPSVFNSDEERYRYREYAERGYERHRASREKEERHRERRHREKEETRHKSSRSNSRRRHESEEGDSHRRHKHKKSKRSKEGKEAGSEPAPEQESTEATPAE
UniProt Q86UY8: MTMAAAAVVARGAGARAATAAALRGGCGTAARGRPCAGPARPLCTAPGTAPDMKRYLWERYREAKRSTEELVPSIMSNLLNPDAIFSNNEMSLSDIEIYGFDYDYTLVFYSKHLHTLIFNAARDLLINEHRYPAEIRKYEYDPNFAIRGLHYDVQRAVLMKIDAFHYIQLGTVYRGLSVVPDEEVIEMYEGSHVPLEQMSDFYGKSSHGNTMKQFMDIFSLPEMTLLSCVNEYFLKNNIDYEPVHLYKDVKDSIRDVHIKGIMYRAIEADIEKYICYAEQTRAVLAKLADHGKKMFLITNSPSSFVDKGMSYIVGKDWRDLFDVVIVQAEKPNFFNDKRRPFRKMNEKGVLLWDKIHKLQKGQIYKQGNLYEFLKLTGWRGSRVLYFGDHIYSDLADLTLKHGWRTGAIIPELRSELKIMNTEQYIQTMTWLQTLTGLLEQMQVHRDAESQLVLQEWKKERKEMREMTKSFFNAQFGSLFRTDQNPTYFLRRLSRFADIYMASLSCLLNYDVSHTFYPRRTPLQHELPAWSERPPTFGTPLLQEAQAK
UniProt Q86UL3: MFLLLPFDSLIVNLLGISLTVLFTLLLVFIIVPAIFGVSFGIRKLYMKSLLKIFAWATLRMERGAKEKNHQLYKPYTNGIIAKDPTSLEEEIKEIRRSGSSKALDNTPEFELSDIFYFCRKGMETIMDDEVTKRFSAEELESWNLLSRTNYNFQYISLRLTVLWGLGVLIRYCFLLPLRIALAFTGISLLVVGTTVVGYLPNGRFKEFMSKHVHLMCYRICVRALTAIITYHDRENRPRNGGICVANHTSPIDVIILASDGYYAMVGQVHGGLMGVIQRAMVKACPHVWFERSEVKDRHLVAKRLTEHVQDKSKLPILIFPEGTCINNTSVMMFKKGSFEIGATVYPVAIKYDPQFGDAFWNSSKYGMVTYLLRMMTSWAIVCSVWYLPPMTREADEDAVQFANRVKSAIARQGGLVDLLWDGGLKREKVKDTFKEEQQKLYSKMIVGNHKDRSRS
UniProt Q71SY5: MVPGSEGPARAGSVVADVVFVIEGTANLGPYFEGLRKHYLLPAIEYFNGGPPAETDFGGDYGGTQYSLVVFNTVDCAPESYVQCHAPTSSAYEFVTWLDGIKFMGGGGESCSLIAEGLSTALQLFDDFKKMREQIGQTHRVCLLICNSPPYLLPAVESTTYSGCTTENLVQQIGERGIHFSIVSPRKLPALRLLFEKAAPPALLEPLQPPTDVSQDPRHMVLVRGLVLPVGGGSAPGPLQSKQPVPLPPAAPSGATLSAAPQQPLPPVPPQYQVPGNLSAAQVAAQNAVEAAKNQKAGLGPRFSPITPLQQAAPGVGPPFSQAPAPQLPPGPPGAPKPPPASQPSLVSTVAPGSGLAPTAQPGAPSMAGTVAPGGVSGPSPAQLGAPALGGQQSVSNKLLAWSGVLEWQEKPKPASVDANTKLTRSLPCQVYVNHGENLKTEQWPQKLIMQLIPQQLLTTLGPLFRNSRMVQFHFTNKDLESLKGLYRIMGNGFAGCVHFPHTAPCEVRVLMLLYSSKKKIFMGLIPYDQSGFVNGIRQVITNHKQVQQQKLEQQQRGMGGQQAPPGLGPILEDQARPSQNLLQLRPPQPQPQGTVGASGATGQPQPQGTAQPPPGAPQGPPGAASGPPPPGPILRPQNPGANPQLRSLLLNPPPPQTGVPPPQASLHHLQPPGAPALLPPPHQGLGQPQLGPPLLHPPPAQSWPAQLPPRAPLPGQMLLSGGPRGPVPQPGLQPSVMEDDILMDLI
UniProt Q86V88: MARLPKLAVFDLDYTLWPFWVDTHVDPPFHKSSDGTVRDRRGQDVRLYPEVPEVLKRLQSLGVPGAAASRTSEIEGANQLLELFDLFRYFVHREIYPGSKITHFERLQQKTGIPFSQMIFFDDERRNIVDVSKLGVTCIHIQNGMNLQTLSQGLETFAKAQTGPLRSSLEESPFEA
UniProt Q6ZVM7: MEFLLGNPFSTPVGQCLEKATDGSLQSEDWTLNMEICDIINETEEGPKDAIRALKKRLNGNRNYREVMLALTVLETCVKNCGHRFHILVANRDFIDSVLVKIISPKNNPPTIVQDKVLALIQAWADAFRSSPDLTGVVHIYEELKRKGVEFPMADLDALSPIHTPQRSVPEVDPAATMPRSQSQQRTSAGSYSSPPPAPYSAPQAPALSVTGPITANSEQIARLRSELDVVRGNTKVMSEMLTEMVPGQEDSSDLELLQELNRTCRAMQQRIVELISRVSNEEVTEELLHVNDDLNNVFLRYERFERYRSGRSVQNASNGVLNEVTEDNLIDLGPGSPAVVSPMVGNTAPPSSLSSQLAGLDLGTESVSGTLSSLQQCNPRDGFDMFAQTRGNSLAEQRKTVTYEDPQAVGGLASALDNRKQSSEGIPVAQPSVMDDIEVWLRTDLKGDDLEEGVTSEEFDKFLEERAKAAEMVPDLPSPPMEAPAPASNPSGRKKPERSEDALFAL
UniProt Q86XL3: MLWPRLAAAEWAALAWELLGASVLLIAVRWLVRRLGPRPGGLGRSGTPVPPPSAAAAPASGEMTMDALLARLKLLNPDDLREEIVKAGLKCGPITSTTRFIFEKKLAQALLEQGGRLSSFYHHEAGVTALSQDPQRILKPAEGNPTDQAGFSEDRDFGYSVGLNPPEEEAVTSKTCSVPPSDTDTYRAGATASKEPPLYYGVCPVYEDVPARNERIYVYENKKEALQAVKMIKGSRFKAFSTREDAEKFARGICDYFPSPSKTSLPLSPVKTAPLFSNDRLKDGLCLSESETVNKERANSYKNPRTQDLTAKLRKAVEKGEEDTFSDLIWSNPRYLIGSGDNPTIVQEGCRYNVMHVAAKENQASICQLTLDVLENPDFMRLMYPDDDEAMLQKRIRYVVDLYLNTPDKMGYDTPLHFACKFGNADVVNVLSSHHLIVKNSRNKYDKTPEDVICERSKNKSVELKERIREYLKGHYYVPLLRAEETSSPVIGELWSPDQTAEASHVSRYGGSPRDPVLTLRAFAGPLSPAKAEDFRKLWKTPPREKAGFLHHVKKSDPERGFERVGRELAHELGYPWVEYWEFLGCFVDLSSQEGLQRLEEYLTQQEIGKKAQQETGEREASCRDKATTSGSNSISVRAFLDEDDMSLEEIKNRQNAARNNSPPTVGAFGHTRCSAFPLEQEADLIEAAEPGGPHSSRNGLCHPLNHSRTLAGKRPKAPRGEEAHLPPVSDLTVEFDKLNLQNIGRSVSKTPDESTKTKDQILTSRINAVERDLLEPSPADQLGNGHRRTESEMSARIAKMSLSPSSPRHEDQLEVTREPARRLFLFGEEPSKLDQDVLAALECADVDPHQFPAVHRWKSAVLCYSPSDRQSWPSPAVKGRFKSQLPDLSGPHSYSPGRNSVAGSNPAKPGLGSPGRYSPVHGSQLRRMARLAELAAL
UniProt Q86YB8: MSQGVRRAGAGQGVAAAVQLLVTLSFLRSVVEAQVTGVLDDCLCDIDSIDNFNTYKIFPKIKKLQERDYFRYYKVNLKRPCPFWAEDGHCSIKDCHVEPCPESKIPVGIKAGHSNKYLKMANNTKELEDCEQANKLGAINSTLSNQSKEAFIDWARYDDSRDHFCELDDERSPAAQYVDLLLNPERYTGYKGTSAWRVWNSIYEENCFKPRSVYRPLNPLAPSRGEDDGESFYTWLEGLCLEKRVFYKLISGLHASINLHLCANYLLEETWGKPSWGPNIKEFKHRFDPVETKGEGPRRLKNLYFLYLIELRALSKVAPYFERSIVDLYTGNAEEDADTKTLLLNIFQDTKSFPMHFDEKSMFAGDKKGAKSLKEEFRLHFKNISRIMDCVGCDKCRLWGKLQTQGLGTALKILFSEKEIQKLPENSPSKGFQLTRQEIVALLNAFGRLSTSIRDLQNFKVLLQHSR
UniProt Q6UXH1: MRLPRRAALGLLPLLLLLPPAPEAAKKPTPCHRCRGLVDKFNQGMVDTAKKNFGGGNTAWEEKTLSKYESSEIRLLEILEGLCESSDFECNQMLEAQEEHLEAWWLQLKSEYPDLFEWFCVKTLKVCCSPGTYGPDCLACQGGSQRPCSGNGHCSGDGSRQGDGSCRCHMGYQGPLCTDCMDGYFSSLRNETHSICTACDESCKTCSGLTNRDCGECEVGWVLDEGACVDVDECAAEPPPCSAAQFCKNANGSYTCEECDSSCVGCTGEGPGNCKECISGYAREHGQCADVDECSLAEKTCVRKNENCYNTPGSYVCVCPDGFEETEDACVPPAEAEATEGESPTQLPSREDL
UniProt Q7Z6I8: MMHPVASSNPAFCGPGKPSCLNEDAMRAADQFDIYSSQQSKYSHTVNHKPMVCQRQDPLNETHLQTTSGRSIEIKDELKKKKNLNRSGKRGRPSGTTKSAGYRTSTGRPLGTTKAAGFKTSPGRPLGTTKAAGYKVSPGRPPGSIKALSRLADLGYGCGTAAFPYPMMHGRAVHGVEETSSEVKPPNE
UniProt Q7LBR1: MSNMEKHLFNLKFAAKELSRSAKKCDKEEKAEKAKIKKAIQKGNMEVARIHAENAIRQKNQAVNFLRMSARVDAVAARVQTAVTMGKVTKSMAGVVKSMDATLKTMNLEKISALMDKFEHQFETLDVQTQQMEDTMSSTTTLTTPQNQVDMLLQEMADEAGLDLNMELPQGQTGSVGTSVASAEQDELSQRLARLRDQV

± gives the standard deviation of the averaged measurements. The entries are a selection whose mix differs from that of the whole data set.

Take DCP2 (UniProt Q8IU60): the NP40-soluble protein abundance is 1.03 ± 0.013 (concentration: 1mM); 1.047 ± 0.01 (concentration: 2mM); 1 ± 0.014 (concentration: 4mM); 1.06 ± 0.017 (concentration: 6mM); 1.08 ± 0.02 (concentration: 8mM); 1.07 ± 0.044 (concentration: 10mM).

On to “UniProt Q7L2E3-2|H7BXY3 and related entries”, for which the NP40-soluble protein abundance is, setting by setting: (concentration: 1mM) 0.828 ± 0.031; (concentration: 2mM) 0.896 ± 0.064; (concentration: 4mM) 0.944 ± 0.12; (concentration: 6mM) 0.932 ± 0.059; (concentration: 8mM) 1.03 ± 0.13; (concentration: 10mM) 1.12 ± 0.13.

Take PRPF39 (UniProt Q86UA1): the NP40-soluble protein abundance is, setting by setting: (concentration: 1mM) 1.06 ± 0.012; (concentration: 2mM) 1.04 ± 0.017; (concentration: 4mM) 1.042 ± 0.0013; (concentration: 6mM) 0.987 ± 0.052; (concentration: 8mM) 0.998 ± 0.012; (concentration: 10mM) 1.03 ± 0.018.

CMC1 (UniProt Q7Z7K0): the NP40-soluble protein abundance is, setting by setting: (concentration: 1mM) 0.918 ± 0.043; (concentration: 2mM) 0.926 ± 0.014; (concentration: 4mM) 0.95 ± 0.047; (concentration: 6mM) 0.989 ± 0.069; (concentration: 8mM) 0.879 ± 0.043; (concentration: 10mM) 0.91 ± 0.089.

With UniProt Q6UXN9, the NP40-soluble protein abundance by setting is: (concentration: 1mM) 1.01 ± 0.2; (concentration: 2mM) 1.01 ± 0.13; (concentration: 4mM) 1.03 ± 0.1; (concentration: 6mM) 0.948 ± 0.16; (concentration: 8mM) 1.05 ± 0.083; (concentration: 10mM) 1.06 ± 0.084.

Regarding UniProt Q6UN15 and related entries, the NP40-soluble protein abundance is, setting by setting: (concentration: 1mM) 1.12 ± 0.18; (concentration: 2mM) 1.17 ± 0.23; (concentration: 4mM) 1.3 ± 0.24; (concentration: 6mM) 1.43 ± 0.27; (concentration: 8mM) 1.36 ± 0.18; (concentration: 10mM) 1.43 ± 0.21.

Regarding NT5DC3 (UniProt Q86UY8), the NP40-soluble protein abundance (concentration: 1mM) came out at 1.01 ± 0.18; the NP40-soluble protein abundance (concentration: 2mM) was determined as 1.07 ± 0.092; the NP40-soluble protein abundance (concentration: 4mM) is 1.06 ± 0.14; the NP40-soluble protein abundance (concentration: 6mM) was 0.986 ± 0.12; the NP40-soluble protein abundance (concentration: 8mM) was 1 ± 0.1; the NP40-soluble protein abundance (concentration: 10mM) came out at 1.01 ± 0.078.

Consider GPAT4 (UniProt Q86UL3), for which the NP40-soluble protein abundance (concentration: 1mM) came out at 1.05 ± 0.04; the NP40-soluble protein abundance (concentration: 2mM) stood at 1.01 ± 0.066; the NP40-soluble protein abundance (concentration: 4mM) was 1.02 ± 0.072; the NP40-soluble protein abundance (concentration: 6mM) was 0.979 ± 0.049; the NP40-soluble protein abundance (concentration: 8mM) worked out at 1.02 ± 0.042; the NP40-soluble protein abundance (concentration: 10mM) was 1.05 ± 0.049.

“UniProt Q7Z4V5-2|Q7Z4V5 and related entries”: the NP40-soluble protein abundance stood at 0.79 ± 0.045 (concentration: 1mM); 0.774 ± 0.025 (concentration: 2mM); 0.734 ± 0.021 (concentration: 4mM); 0.748 ± 0.03 (concentration: 6mM); 0.694 ± 0.025 (concentration: 8mM); 0.712 ± 0.024 (concentration: 10mM).

Regarding UniProt Q71SY5 and related entries, the NP40-soluble protein abundance is, setting by setting: (concentration: 1mM) 0.938 ± 0.054; (concentration: 2mM) 0.929 ± 0.056; (concentration: 4mM) 0.943 ± 0.087; (concentration: 6mM) 0.939 ± 0.087; (concentration: 8mM) 0.94 ± 0.13; (concentration: 10mM) 0.957 ± 0.079.

With UniProt Q86V88 and related entries, the NP40-soluble protein abundance runs as follows: (concentration: 1mM) 0.904 ± 0.19; (concentration: 2mM) 0.91 ± 0.23; (concentration: 4mM) 0.984 ± 0.29; (concentration: 6mM) 0.962 ± 0.31; (concentration: 8mM) 0.933 ± 0.24; (concentration: 10mM) 0.939 ± 0.3.

UniProt Q6ZVM7 and related entries: the NP40-soluble protein abundance runs as follows: (concentration: 1mM) 0.95 ± 0.047; (concentration: 2mM) 0.988 ± 0.029; (concentration: 4mM) 1.01 ± 0.091; (concentration: 6mM) 1.02 ± 0.11; (concentration: 8mM) 0.939 ± 0.046; (concentration: 10mM) 0.947 ± 0.034.

Turning to UniProt Q86XL3 and related entries, the NP40-soluble protein abundance (concentration: 1mM) was determined as 1.01 ± 0.026; the NP40-soluble protein abundance (concentration: 2mM) came to 0.987 ± 0.029; the NP40-soluble protein abundance (concentration: 4mM) came to 0.987 ± 0.038; the NP40-soluble protein abundance (concentration: 6mM) amounted to 1 ± 0.029; the NP40-soluble protein abundance (concentration: 8mM) is 0.995 ± 0.016; the NP40-soluble protein abundance (concentration: 10mM) was 0.985 ± 0.025.

On to UniProt Q86YB8, for which the NP40-soluble protein abundance was found to be 0.913 ± 0.061 (concentration: 1mM); 0.953 ± 0.03 (concentration: 2mM); 0.974 ± 0.084 (concentration: 4mM); 0.9745 ± 0.0083 (concentration: 6mM); 0.929 ± 0.043 (concentration: 8mM); 0.974 ± 0.032 (concentration: 10mM).

UniProt Q6UXH1 and related entries: the NP40-soluble protein abundance reads like this: (concentration: 1mM) 1 ± 0.075; (concentration: 2mM) 0.998 ± 0.029; (concentration: 4mM) 0.988 ± 0.013; (concentration: 6mM) 1.03 ± 0.018; (concentration: 8mM) 0.94 ± 0.025; (concentration: 10mM) 0.901 ± 0.053.

Take C5orf24 (UniProt Q7Z6I8): the NP40-soluble protein abundance stood at 0.963 ± 0.025 (concentration: 1mM); 0.981 ± 0.029 (concentration: 2mM); 1.01 ± 0.071 (concentration: 4mM); 1.01 ± 0.033 (concentration: 6mM); 0.957 ± 0.037 (concentration: 8mM); 0.921 ± 0.042 (concentration: 10mM).

As to CHMP1B (UniProt Q7LBR1), the NP40-soluble protein abundance by setting is: (concentration: 1mM) 0.963 ± 0.062; (concentration: 2mM) 0.991 ± 0.022; (concentration: 4mM) 0.945 ± 0.061; (concentration: 6mM) 0.981 ± 0.057; (concentration: 8mM) 0.94 ± 0.029; (concentration: 10mM) 0.902 ± 0.042.

(Values after the supplement of paper PMC6411743.)
